The exact form of at least one protein or probe is not confirmed. A weaker result is weaker than the reference pair of the same experiment. At least one verdict rests on a figure or table, not on a statement of the authors.

The data set concerns RNAP core + sigma70. The data set is described as follows: heparin challenge of open complex, read by single-round transcription. The following applies: no CedA, 10 ug/ml heparin, shorter RPo lifetime than with CedA.

As to “TGGCAGTTTTAGGCTGATTTGGTTGAATGTTGCGCGGTCAGAAAATTATTTTAAATTTCCTCTTGTCAGGCCGGAATAACTCCCTATAATGCGCCACCACTGACACGGAACAACGGCAAACACGCCGCCGGGTCAGCGGGGTTCTCCTGAGAACTCCGGCAGAGAAAGCAAAAATAAATGC (double strand) [rrnBP1 promoter fragment]”, the binding result is reported as “binds more weakly”.
